Experimental findings from publication PMC12720780 are described below.

No constants are given. Whether binding was seen depends on the method and setting. Some entries that bind do so weakly or less than the wild type.

The target of this experiment is Ntr1 (neurotensin receptor, GPCR, Homo sapiens) (human) (UniProt P30989). The experiment can be described thus: SDS-PAGE with Western blot; Eluates from Ni-NTA Superflow (sulfo-SMA and DIBMA-glucosamine conditions); reducing SDS-PAGE, samples not boiled; immunoblot; band densitometry; both purified. Background: Immunoblotting shows a protein as a band on a membrane.

With “Ntr1 (neurotensin receptor, GPCR, Homo sapiens) (from UniProt P30989 1-418)”, the binding entry is recorded as “binds”.
